The source of these data is patent US11274126B2 (University of Rhode Island Board of Trustees, priority 2016, dated 2022).

HELM strings list residues between dots; [ac] is acetyl, [am] amide, other brackets name non-standard units.

The first data set is described as follows: general procedure: Fmoc solid-phase peptide synthesis; H-Trp(Boc)-2-chlorotrityl resin (0.78 mmol/g); HBTU; DIC/HOAt for cyclization. The settings on record: whole synthesis, scale 0.3 mmol.
Regarding “PEPTIDE1{W.E.W.E.W.E.W.E.W.C}$PEPTIDE1,PEPTIDE1,1:R1-10:R2$$$V2.0”, the “final HPLC purity” value amounted to 99%.

For the substance l(CW(EW)4) (CWEWEWEWEW), the “final HPLC purity” value was 99%.

Still in this data set, the particulars now being: whole synthesis, scale of the general procedure 0.3 mmol.
“PEPTIDE1{E.E.E.E.W.W.W.W.W.C}$PEPTIDE1,PEPTIDE1,1:R1-10:R2$$$V2.0”: the “final HPLC purity” value was 99%.

Take “PEPTIDE1{L.E.L.E.L.E.L.E.W.C}$PEPTIDE1,PEPTIDE1,1:R1-10:R2$$$V2.0”: the “final HPLC purity” value was 95%.

Regarding “PEPTIDE1{R.R.R.R.W.W.W.W.W.C}$PEPTIDE1,PEPTIDE1,1:R1-10:R2$$$V2.0”, the “final HPLC purity” value worked out at 99%.

For c[(WE)3WC] (WEWEWEWC; cyclic), the “final HPLC purity” value is 99%.

On to c[(WE)5WC] (WEWEWEWEWEWC; cyclic), for which the “final HPLC purity” value worked out at 99%.
